Results from patent publication US20040242851A1 (published 2004).
Positions count from the first letter of the chain named. No constants are given. Whether binding was seen depends on the method and setting. Some binding calls cover weakened binding; strength is not graded here.

Sequences of proteins named here, by UniProt entry; tags and fusion partners are left off. Residues count along the entry.
UniProt P35968, residues 20-764: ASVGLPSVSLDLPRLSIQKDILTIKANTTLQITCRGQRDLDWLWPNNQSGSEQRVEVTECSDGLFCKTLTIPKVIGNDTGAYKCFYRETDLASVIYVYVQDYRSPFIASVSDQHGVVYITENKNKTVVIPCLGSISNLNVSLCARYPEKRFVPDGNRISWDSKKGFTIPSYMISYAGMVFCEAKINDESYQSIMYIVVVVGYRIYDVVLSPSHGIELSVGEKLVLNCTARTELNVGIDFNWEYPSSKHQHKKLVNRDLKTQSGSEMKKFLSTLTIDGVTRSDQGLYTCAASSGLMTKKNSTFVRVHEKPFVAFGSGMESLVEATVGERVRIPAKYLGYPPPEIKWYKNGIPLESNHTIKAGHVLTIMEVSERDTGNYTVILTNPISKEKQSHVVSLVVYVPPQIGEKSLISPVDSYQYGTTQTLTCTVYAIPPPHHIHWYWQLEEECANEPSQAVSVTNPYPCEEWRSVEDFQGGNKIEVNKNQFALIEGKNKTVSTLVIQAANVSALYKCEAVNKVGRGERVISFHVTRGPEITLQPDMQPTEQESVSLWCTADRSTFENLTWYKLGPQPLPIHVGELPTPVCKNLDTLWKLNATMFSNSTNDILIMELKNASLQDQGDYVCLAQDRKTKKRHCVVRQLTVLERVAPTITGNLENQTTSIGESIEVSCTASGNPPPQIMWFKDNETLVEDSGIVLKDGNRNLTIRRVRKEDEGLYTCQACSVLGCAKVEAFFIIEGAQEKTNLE

B1: scFv p1C11 (scFv)
scFv: QVKLQQSGAELVGSGASVKLSCTTSGFNIKDFYMHWVKQRPEQGLEWIGWIDPENGDSDYAPKFQGKATMTADSSSNTAYLQLSSLTSEDTAVYYCNAYYGDYEGYWGQGTTVTVSSGGGGSGGGGSGGGGSDIELTQSPAIMSASPGEKVTITCSASSSVSYMHWFQQKPGTSPKLWIYSTSNLASGVPARFSGSGSGTSYSLTISRMEAEDAATYYCQQRSSYPFTFGSGTKLEIK
notes: soluble form made in E. coli; also called KDR-specific scFv p1C11
B2: D2C6 (Fab, V domains shown)
VH: EVQLVQSGGGLVKPGGSLRLSCAASGFTFSSYSMNWVRQAPGKGLEWVSSISSSSSYIYYADSVKGRFTISRDNAKNSLYLQMNSLRAEDTAVYYCARVTDAFDIWGQGTMVTVSS
VL: EIVMTQSPATLSLSPGERATLSCRASQSVSSYLAWYQQKPGQAPRLLIYDSSNRATGIPARFSGSGSGTDFTLTISSLEPEDFATYYCLQHNTFPPTFGQGTKVEIK
B3: D2H2 (Fab, V domains shown)
VH: B2 VH with N77D
VL: DIQLTQSPSSVSASVGDRVTITCRASQGISSRLAWYQQKPGKAPKLLIYAASSLQTGVPSRFSGSGSGTDFTLTISSLQPEDFATYYCQQANRFPPTFGPGTKVDIK
B4: D1H4 (Fab, V domains shown)
VH: B2 VH
VL: QSALTQPASLSGSPGQSITISCAGTTTDLTYYDLVSWYQQHPGQAPKLVIYDGNKRPSGVSNRFSGSKSGNTASLTISGLQAEDEADYYCNSYVSSRFYVFGTGTKVTVL
B5: SA1 (Fab, V domains shown)
VH: B2 VH
VL: QSVVTQPPSVSGAPGQRVTISCTGSHSNFGAGTDVHWYQHLPGTAPRLLIHGDSNRPSGVPDRFSGSRSGTSASLAITGLRVEDEADYYCQSYDYGLRGWVFGGGTKLTVL
B6: SA3 (Fab, V domains shown)
VH: B2 VH
VL: DVVMTQSPSSLSASVGDRVTITCRASQNINNYLNWYQQKPGKAPKLLIYAASTLQSGVPSRFSGSGSGTDFTLTITSLQPEDSATYYCQQYSRYPPTFGGGTKVEIT
B7: SB10 (Fab, V domains shown)
VH: B2 VH
VL: QSALTQPASVSGSRGQSITLSCTGSSTDVGNYNYISWYQQHPGQAPKLLIYDVTSRPSGVSDRFSGSKSGLTASLTISGLQPEDEADYYCNSYSATDTLVFGGGTKLTVL
B8: SB5 (Fab, V domains shown)
VH: B2 VH
VL: QAVLTQPSSVSGAPGQRVTISCTGQSSNIGADYDVHWYQQFPGTAPKLLIYGHNNRPSGVPDRFSGSKSGTSVSLVISGLQAEDEADYYCQSYDSSLSGLVFGGGTKVTVL
B9: SC7 (Fab, V domains shown)
VH: B2 VH
VL: DIQLTQSPSSVSASVGDSVTITCRASQDISSWLAWYQQKPGEAPKLLIYAASLLQSGVPSRFSGSGSGTDFALTINSLQPEDFATYFCQQADSFPPTFGQGTRLEIK
B10: SD2 (Fab, V domains shown)
VH: B2 VH
VL: DIELTQSPSSVSASVGDRVTLTCRASQSIKRWLAWYQQKPGKAPRLLIYAASTLQSGVPSRFSGGGSGTDFTLTINSLQPEDFAIYYCQQANSFPPTFGPGTKVDIK
B11: SD5 (Fab, V domains shown)
VH: B2 VH
VL: QSVVTQPPSVSGAPGQRVTISCSGSRSNIGAHYEVQWYQQFPGAAPKLLIYGDTNRPSGVPDRFSASHSGTSASLAITGLQAEDEADYYCQSYDTSLRGPVFGGGTKLTVL
B12: SF2 (Fab, V domains shown)
VH: B2 VH
VL: QSVVTQPPSVSGAPGQRVTISCTGSSSNIGTGYDVHWYQQVPGSAPKLLIYAYTNRPSGVPDRFSGSKSGMSASLVIGGLQAEDEADYYCQSFDDSLNGLVFGPGTSVTVL
B13: SF7 (Fab, V domains shown)
VH: B2 VH
VL: B5 VL with V4L, S54T, N55H, P61A, T71A
B14: 1121 (Fab, V domains shown)
VH: B2 VH
VL: DIQMTQSPSSVSASIGDRVTITCRASQGIDNWLGWYQQKPGKAPKLLIYDASNLDTGVPSRFSGSGSGTYFTLTISSLQAEDFAVYFCQQAKAFPPTFGGGTKVDIK

Experiments:
[1] = molecular target: soluble fusion protein KDR-alkaline phosphatase (AP) (human) (UniProt P35968); assay: direct binding ELISA on immobilized KDR, anti-E tag-HRP detection
[2] = molecular target: soluble fusion protein KDR-alkaline phosphatase (AP) (human) (UniProt P35968); assay: direct binding ELISA on immobilized KDR, detection with anti-E tag antibody-HRP, A450
[3] = molecular target: soluble fusion protein KDR-alkaline phosphatase (AP) (human) (UniProt P35968); assay: blocking ELISA: antibody pre-mixed with KDR-AP, transferred to immobilized VEGF165; plate-bound KDR-AP read at 405 nm
[4] = molecular target: soluble fusion protein KDR-alkaline phosphatase (AP) (human) (UniProt P35968); assay: phage display selection on immobilized KDR-AP and phage ELISA
[5] = molecular target: soluble fusion protein KDR-alkaline phosphatase (AP) (human) (UniProt P35968); assay: screening of the second Fab library (D2C6 heavy chain, shuffled light chains)

Binder	binding [5]	other results
B1	–	binding [1]: binds; binding [2]: binds; binding [3]: binds
B2	–	binding [4]: binds
B3	–	binding [4]: binds
B4	–	binding [4]: binds
B5	binds	–
B6	binds	–
B7	binds	–
B8	binds	–
B9	binds	–
B10	binds	–
B11	binds	–
B12	binds	–
B13	binds	–
B14	binds	–
